Test results published in patent US20230173047A1, “CITRULLINATED NUCLEOPHOSMIN PEPTIDES AS CANCER VACCINES” (SCANCELL LIMITED, priority 2020, published 2023).
At least one peptide structure holds a part that was inferred or is arguable (an end, a ring closure or a residue). Where a SMILES comes first, the peptide text is derived from it. [ ]: non-standard residue; d: D form. Cit = NC(=O)NCCC[C@H](N)C(=O)O

Assays:
[1] = test system: B16 HHDII/iDP4 tumour cells; assay type: in vivo, mouse; conditions: day 24 post tumour implant; control median 1425 mm^3
Experimental: HLA-DR4 mice (Taconic, USA) and the HHDII/HLA-DP4 transgenic strain of mouse as described in patent WO2013/017545 A1 (EMMA repository, France) were used, aged between 8 and 12 weeks, and cared for by the staff at Nottingham Trent University. All work was carried out under a Home Office project licence. Peptides were dissolved in 10% dimethylformamide to 1 mg/mL and then emulsified (a series of dilutions) with the adjuvant CpG and MPLA 6 µg/mouse of each (Invivogen, UK). Peptides (25 µg/mouse) were injected subcutaneously at the base of the tail.
For tumour challenge experiments, mice were challenged with 1×10^5 B16 HHDII/iDP4, B16F1HHDIIMHCIIKO or B16 HHDII/PAD2KOcDP4 cells subcutaneously on the right flank 3 days before primary immunisation (unless stated otherwise) and then immunised as described above. Tumour growth was monitored at 3-4 days intervals and mice humanely euthanised once tumour reached ≥10 mm in diameter.
The inventors had already established by Western blotting that the melanoma B16F1 cell lines constitutively express NPM and in vitro citrullination of NPM generates citrulline at position 277 (FIG. 5A and B). Next, the anti-tumour effect of NPM 266-285 cit peptide immunisation was assessed in vivo. The effect of immunisation with NPM 266-285 (cit and wt) on the growth of the mouse B16 melanoma cell line transfected with IFNy inducible human DP4 (iDP4) was assessed. […]

[2] = test system: B16F1cDP4PAD2KO tumour cells; assay: Tumour challenge with PAD2 knock-out B16 tumour followed by peptide immunisation; assay type: in vivo, mouse; conditions: HLA-DP4 mice, p = 0.6826

Compound	Tumour volume, median [1]	Survival advantage vs CPG/MPLA control [2]
CC[C@H](C)[C@H](NC(=O)[C@H](C)NC(=O)[C@H](CCC(=O)O)NC(=O)[C@H](CCC(N)=O)NC(=O)[C@H](CC(=O)O)NC(=O)[C@@H](NC(=O)[C@H](CCSC)NC(=O)[C@H](CCCNC(N)=O)NC(=O)[C@H](Cc1ccccc1)NC(=O)[C@H](CS)NC(=O)[C@H](CC(N)=O)NC(=O)[C@H](CCCCN)NC(=O)[C@@H](NC(=O)[C@H](Cc1ccc(O)cc1)NC(=O)[C@H](CC(N)=O)NC(=O)[C@@H](NC(=O)[C@H](Cc1ccccc1)NC(=O)[C@H](CCCCN)NC(=O)[C@H](C)N)[C@@H](C)CC)C(C)C)[C@@H](C)O)C(=O)N[C@@H](CCC(N)=O)C(=O)O [NPM 266-285 cit, AKFINYVKNCF-cit-MTDQEAIQ] (H-AKFINYVKNCF[Cit]MTDQEAIQ-OH)	0 mm^3	no significant survival advantage
CC[C@H](C)[C@H](NC(=O)[C@H](C)NC(=O)[C@H](CCC(=O)O)NC(=O)[C@H](CCC(N)=O)NC(=O)[C@H](CC(=O)O)NC(=O)[C@@H](NC(=O)[C@H](CCSC)NC(=O)[C@H](CCCNC(=N)N)NC(=O)[C@H](Cc1ccccc1)NC(=O)[C@H](CS)NC(=O)[C@H](CC(N)=O)NC(=O)[C@H](CCCCN)NC(=O)[C@@H](NC(=O)[C@H](Cc1ccc(O)cc1)NC(=O)[C@H](CC(N)=O)NC(=O)[C@@H](NC(=O)[C@H](Cc1ccccc1)NC(=O)[C@H](CCCCN)NC(=O)[C@H](C)N)[C@@H](C)CC)C(C)C)[C@@H](C)O)C(=O)N[C@@H](CCC(N)=O)C(=O)O [NPM 266-285 wt, reference compound] (H-AKFINYVKNCFRMTDQEAIQ-OH)	34 mm^3	–
